Results deposited as PubChem BioAssay AID1671195 (Yale University, 2021).
Assay: 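Regulators of LDL receptor activity judged by labelled LDL uptake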 (primary screen). System: human Huh7 hepatoma cells. Reagents: siRNA pool against human genes, 18 nM. Time to read-out: about 2 to 2.5 days of knockdown, then 8 h LDL uptake. Treatment: DiI-labelled LDL at 30 µg/ml for 8 h, in lipoprotein-deficient serum medium. Detection: 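Per-cell DiI-LDL intensity by automated imaging; well means scaled to the plate median and given as a robust z-score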. Direction: robust z-score: higher = more LDL uptake after knockdown. Hit rule: 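Active when two or more replicates show a robust z-score above 2 or below -2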.
Shown is a random part of about 22,000 deposited reagents. Of all reagents, about 1,510 (6.9%) got an active call. 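Active includes knockdowns raising or lowering LDL uptake; positive z-scores mean more uptake, negative mean less.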 Reagents against one gene are numbered here.

gene	pool no.	robust z-score, replicate 1	robust z-score, replicate 2	robust z-score, replicate 3	activity call
DHRS2 (dehydrogenase/reductase 2)	1	-1.29	-0.926	-1.25	inactive
LOC441458 (retired record)	1	-1.16	-1.51	-1.13	inactive
BMP1 (bone morphogenetic protein 1)	1	-1.47	-1.47	-1.5	inactive
UPK3B (uroplakin 3B)	1	-0.115	0.221	-0.282	inactive
BTG1 (BTG anti-proliferation factor 1)	1	-0.362	0.291	-0.547	inactive
GULP1 (GULP PTB domain containing engulfment adaptor 1)	1	-2.44	-1.11	-2.51	active
IGSF22 (immunoglobulin superfamily member 22)	1	1.46	1.11	0.969	inactive
DEFB135 (defensin beta 135)	1	-0.201	-0.937	-0.754	inactive
IL7R (interleukin 7 receptor)	1	-0.568	-1.03	-0.789	inactive
CCDC158 (coiled-coil domain containing 158)	1	1.97	1.77	2.06	active
LOC151760 (putative uncharacterized protein LOC151760)	1	-0.0549	0.15	-0.437	inactive
C6orf120 (chromosome 6 open reading frame 120)	1	1.31	1.51	1.03	inactive
GPR61 (G protein-coupled receptor 61)	1	0.19	-1.23	-0.616	inactive
LOC402522 (retired record)	1	-0.932	-2.12	-1.55	inactive
LOC387649 (retired record)	1	-0.407	-0.604	-0.0991	inactive
LOC343854 (retired record)	1	0.226	-0.118	0.163	inactive
ZNF169 (zinc finger protein 169)	1	-1.62	-1.54	-1.76	inactive
ZNF850-DT (ZNF850 divergent transcript)	1	2.37	2.46	2.29	active
KIF20A (kinesin family member 20A)	1	-0.235	-0.343	-0.89	inactive
IGKV1ORY-1 (immunoglobulin kappa variable 1/ORY-1 (pseudogene))	1	-0.196	-0.185	-0.296	inactive
SPNS2 (SPNS lysolipid transporter 2, sphingosine-1-phosphate)	1	-0.731	-0.816	-1.18	inactive
TBC1D16 (TBC1 domain family member 16)	1	-0.539	-0.677	-0.344	inactive
TFDP3 (transcription factor Dp family member 3)	1	0.415	0.267	0.508	inactive
CAST (calpastatin)	1	-0.373	-0.493	-1.31	inactive
HIRA (histone cell cycle regulator)	1	-0.278	0.61	-0.306	inactive
LOC441742 (retired record)	1	-0.344	-0.462	-0.67	inactive
HDLBP (high density lipoprotein binding protein)	1	-1.38	-1.67	-1.3	inactive
TTI1 (TELO2 interacting protein 1)	1	-1.55	-1.17	-0.54	inactive
EPCAM (epithelial cell adhesion molecule)	1	0.244	1.49	0.531	inactive
ANKRD20A18P (ankyrin repeat domain 20 family member A18, pseudogene)	1	0.652	-0.217	-0.139	inactive
CBLN4 (cerebellin 4 precursor)	1	1.01	1.08	0.415	inactive
DUS4L (dihydrouridine synthase 4 like)	1	0.912	0.485	-0.0927	inactive
HSBP1L1 (heat shock factor binding protein 1 like 1)	1	-0.00863	-0.441	-0.339	inactive
ZNF107 (zinc finger protein 107)	1	-0.815	-0.75	-1.17	inactive
FDPSP7 (farnesyl diphosphate synthase pseudogene 7)	1	5.66	5.14	5.68	active
SRSF1 (serine and arginine rich splicing factor 1)	1	-0.163	-0.13	0.33	inactive
ATAD2B (ATPase family AAA domain containing 2B)	1	-1.91	-0.917	-0.119	inactive
RCN2 (reticulocalbin 2)	1	0.925	0.895	1.03	inactive
CPEB3 (cytoplasmic polyadenylation element binding protein 3)	1	-0.413	0.0326	-0.0786	inactive
SYCP1 (synaptonemal complex protein 1)	1	-0.678	-0.492	-0.86	inactive
SV2B (synaptic vesicle glycoprotein 2B)	1	0.188	0.569	0.401	inactive
RSL24D1P11 (ribosomal L24 domain containing 1 pseudogene 11)	1	-1.04	-0.938	-0.715	inactive
SLC35D4	1	0.342	-0.011	-0.339	inactive
H4C9 (H4 clustered histone 9)	1	-0.095	-1.41	-0.548	inactive
EIF2A (eukaryotic translation initiation factor 2A)	1	-0.403	-0.633	0.41	inactive
SLC30A8	1	0.215	0.727	0.0408	inactive
ATP2C1 (ATPase secretory pathway Ca2+ transporting 1)	1	1.32	1.32	0.926	inactive
ADAM18 (ADAM metallopeptidase domain 18)	1	1	0.517	1.08	inactive
SULT1C3 (sulfotransferase family 1C member 3)	1	2.83	1.15	-0.0767	inactive
LARP4B (La ribonucleoprotein 4B)	1	3.3	1.81	2.44	active
LOC440175 (retired record)	1	-0.665	-0.738	-0.83	inactive
JADE3 (jade family PHD finger 3)	1	-0.405	-0.973	-0.0695	inactive
KRT18P16 (keratin 18 pseudogene 16)	1	-0.436	0.15	0.274	inactive
DNAAF19 (dynein axonemal assembly factor 19)	1	-0.571	-0.231	-0.25	inactive
SMARCC2 (SWI/SNF related BAF chromatin remodeling complex subunit C2)	1	1.3	0.449	1.47	inactive
GSE1 (Gse1 coiled-coil protein)	1	1.41	0.165	0.301	inactive
RIT2 (Ras like without CAAX 2)	1	0.695	-1.03	-0.383	inactive
ZNF815P (zinc finger protein 815, pseudogene)	1	-0.0453	-1.24	-0.977	inactive
EBI3 (Epstein-Barr virus induced 3)	1	-0.246	0.83	-0.143	inactive
LOC440805 (retired record)	1	2.39	2.3	2.4	active
CDH10 (cadherin 10)	1	-0.319	-0.215	-0.102	inactive
FAM162A (family with sequence similarity 162 member A)	1	5.06	-0.812	-0.91	inactive
CD200R1L (CD200 receptor 1 like)	1	1.25	1.13	1.05	inactive
TPST1 (tyrosylprotein sulfotransferase 1)	1	-1.37	-1.19	-1.25	inactive
EIF2B1 (eukaryotic translation initiation factor 2B subunit alpha)	1	-0.153	-0.945	-0.385	inactive
COX10	1	-0.821	-0.817	-0.603	inactive
PIP5K1A (phosphatidylinositol-4-phosphate 5-kinase type 1 alpha)	1	1.04	-0.914	0.8	inactive
ACAA2 (acetyl-CoA acyltransferase 2)	1	0.376	1.42	0.594	inactive
RAD51B (RAD51 paralog B)	1	0.981	1.25	1.67	inactive
PCSK1N (proprotein convertase subtilisin/kexin type 1 inhibitor)	1	-0.348	-0.831	-0.396	inactive
PARP1 (poly(ADP-ribose) polymerase 1)	1	-0.666	0.799	-0.483	inactive
NLGN3 (neuroligin 3)	1	-0.137	-0.471	-0.343	inactive
NOPCHAP1 (NOP protein chaperone 1)	1	0.00102	-0.111	-1.14	inactive
NYAP2	1	1.44	1.39	0.846	inactive
AKR1A1 (aldo-keto reductase family 1 member A1)	1	0.232	0.55	0.141	inactive
CHKB (choline kinase beta)	1	0.411	0.206	-0.579	inactive
NANS (N-acetylneuraminate synthase)	1	-0.594	-3.3	0.0465	inactive
RASD1 (ras related dexamethasone induced 1)	1	2.37	1.19	3.37	active
PLCB1 (phospholipase C beta 1)	1	-2.26	-2.06	-1.63	active
PRKCSH (PRKCSH beta subunit of glucosidase II)	1	0.0269	-0.23	-0.111	inactive
TNKS2 (tankyrase 2)	1	-0.0155	-0.296	-0.158	inactive
CCR7 (C-C motif chemokine receptor 7)	1	-0.633	-0.362	-0.848	inactive
TMEM132C (transmembrane protein 132C)	1	2.45	0.438	1.79	active
LOC441999 (retired record)	1	0.177	-0.0669	0.128	inactive
MRPL39 (mitochondrial ribosomal protein L39)	1	3.09	1.96	1.93	inactive
NCKAP5L (NCK associated protein 5 like)	1	1.4	1.86	2.79	inactive
NCKAP5L (NCK associated protein 5 like)	2	-1.28	-1.09	-1.2	inactive

Active calls, among the entries above:
gene	pool no.	robust z-score, replicate 1	robust z-score, replicate 2	robust z-score, replicate 3	activity call
GULP1 (GULP PTB domain containing engulfment adaptor 1)	1	-2.44	-1.11	-2.51	active
CCDC158 (coiled-coil domain containing 158)	1	1.97	1.77	2.06	active
ZNF850-DT (ZNF850 divergent transcript)	1	2.37	2.46	2.29	active
FDPSP7 (farnesyl diphosphate synthase pseudogene 7)	1	5.66	5.14	5.68	active
LARP4B (La ribonucleoprotein 4B)	1	3.3	1.81	2.44	active
LOC440805 (retired record)	1	2.39	2.3	2.4	active
RASD1 (ras related dexamethasone induced 1)	1	2.37	1.19	3.37	active
PLCB1 (phospholipase C beta 1)	1	-2.26	-2.06	-1.63	active
TMEM132C (transmembrane protein 132C)	1	2.45	0.438	1.79	active
